PubChem BioAssay AID1508597 – Cure First – 2020
Test: 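Survival screen with siRNA in ovarian cancer cells derived from patients, with or without rucaparib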 (primary screen). Cells: human ovarian carcinoma lines grown from tumours: OCI-P5x (papillary serous) and OCI-C5x (clear cell). Reagent: siRNA pool against human genes, 1.25 pmol siRNA per well. Timing: 72 h or 96 h, depending on the cell culture. Treatment: rucaparib 20 µM (about IC30) or vehicle, present until read-out. Rucaparib or vehicle: Vehicle. Cell line: OCI-P5x (serous). Measurement: 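Luminescent ATP-based viability assay read 72 or 96 h after transfection, depending on culture, given as normalised percent viability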. Reading the numbers: viability, normalised: higher = more viable cells remaining. Active means: 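a well counts as a hit if its normalised viability is under 80 percent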. Calls: active = viability under 80%; inactive = viability 80% or more.
This is a random part of the about 2,100 reagents, under one of the conditions tested. 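Calls flag viability under 80% in either arm, not effects specific to rucaparib; the reference for percent is not stated.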 Entries without a mark were called inactive. No sequences are given here. Not stated in the record: the 100% reference.

| target gene | technical replicate | viability, normalised (%) |
| --- | --- | --- |
| SMARCAD1 (GeneID 56916) | 1 | 47.1 (active) |
| SMARCAD1 (GeneID 56916) | 2 | 46.9 (active) |
| SMARCAD1 (GeneID 56916) | 3 | 53.8 (active) |
| NTPCR (GeneID 84284) | 1 | 73.1 (active) |
| NTPCR (GeneID 84284) | 2 | 70.8 (active) |
| NTPCR (GeneID 84284) | 3 | 63.9 (active) |
| MED16 (GeneID 10025) | 1 | 47.9 (active) |
| MED16 (GeneID 10025) | 2 | 58.8 (active) |
| MED16 (GeneID 10025) | 3 | 50.2 (active) |
| CTPS2 (GeneID 56474) | 1 | 114 |
| CTPS2 (GeneID 56474) | 2 | 81.9 |
| CTPS2 (GeneID 56474) | 3 | 102 |
| EEF1E1 (GeneID 9521) | 1 | 103 |
| EEF1E1 (GeneID 9521) | 2 | 97.6 |
| EEF1E1 (GeneID 9521) | 3 | 95.6 |
| APOA2 (GeneID 336) | 1 | 29.2 (active) |
| APOA2 (GeneID 336) | 2 | 27.3 (active) |
| APOA2 (GeneID 336) | 3 | 43.7 (active) |
| KPNA2 (GeneID 3838) | 1 | 110 |
| KPNA2 (GeneID 3838) | 2 | 92.9 |
| KPNA2 (GeneID 3838) | 3 | 93.3 |
| MVK (GeneID 4598) | 1 | 103 |
| MVK (GeneID 4598) | 2 | 90.5 |
| MVK (GeneID 4598) | 3 | 97.2 |
| BCL10 (GeneID 8915) | 1 | 50.3 (active) |
| BCL10 (GeneID 8915) | 2 | 67.6 (active) |
| BCL10 (GeneID 8915) | 3 | 73.4 (active) |
| MAPKAPK2 (GeneID 9261) | 1 | 47.2 (active) |
| MAPKAPK2 (GeneID 9261) | 2 | 72.7 (active) |
| MAPKAPK2 (GeneID 9261) | 3 | 56.2 (active) |
| SMUG1 (GeneID 23583) | 1 | 67.4 (active) |
| SMUG1 (GeneID 23583) | 2 | 77.6 (active) |
| SMUG1 (GeneID 23583) | 3 | 78 (active) |
| MORC1 (GeneID 27136) | 1 | 65.3 (active) |
| MORC1 (GeneID 27136) | 2 | 62 (active) |
| MORC1 (GeneID 27136) | 3 | 70 (active) |
| RCBTB1 (GeneID 55213) | 1 | 72.9 (active) |
| RCBTB1 (GeneID 55213) | 2 | 73.5 (active) |
| RCBTB1 (GeneID 55213) | 3 | 79.8 (active) |
| EIF5A2 (GeneID 56648) | 1 | 62.7 (active) |
| EIF5A2 (GeneID 56648) | 2 | 52.7 (active) |
| EIF5A2 (GeneID 56648) | 3 | 60.5 (active) |
| PRDM7 (GeneID 11105) | 1 | 63.9 (active) |
| PRDM7 (GeneID 11105) | 2 | 68.8 (active) |
| PRDM7 (GeneID 11105) | 3 | 87.6 |
| TET1 (GeneID 80312) | 1 | 67.8 (active) |
| TET1 (GeneID 80312) | 2 | 98.5 |
| TET1 (GeneID 80312) | 3 | 85.9 |
| PHF13 (GeneID 148479) | 1 | 33.4 (active) |
| PHF13 (GeneID 148479) | 2 | 38.1 (active) |
| PHF13 (GeneID 148479) | 3 | 47.5 (active) |
| MYO6 (GeneID 4646) | 1 | 58.7 (active) |
| MYO6 (GeneID 4646) | 2 | 50.3 (active) |
| MYO6 (GeneID 4646) | 3 | 66.5 (active) |
| TP53RK (GeneID 112858) | 1 | 75.8 (active) |
| TP53RK (GeneID 112858) | 2 | 65.2 (active) |
| TP53RK (GeneID 112858) | 3 | 69.9 (active) |

5 entries from above, set out differently:
RCBTB1 (GeneID 55213), technical replicate 2: viability, normalised (%) = 73.5 (active)
RCBTB1 (GeneID 55213), technical replicate 3: viability, normalised (%) = 79.8 (active)
EIF5A2 (GeneID 56648), technical replicate 1: viability, normalised (%) = 62.7 (active)
EIF5A2 (GeneID 56648), technical replicate 2: viability, normalised (%) = 52.7 (active)
EIF5A2 (GeneID 56648), technical replicate 3: viability, normalised (%) = 60.5 (active)
